According to patent US11833137B2, “Substituted chromenones, IRE1 inhibitors, and methods of using same” (The Wistar Institute, priority 2018, dated 2023):

Assay: Fluorescence turn-on of caged D-F07 derivatives by UV, hydrogen peroxide or thiols
Format: physicochemical

COc1cc2c3c(c(=O)oc2c(C2OCCCO2)c1OCc1ccc(B2OC(C)(C)C(C)(C)O2)cc1)CN(C)CC3 [BC-D-F07a, 7-(1,3-dioxan-2-yl)-9-methoxy-3-methyl-8-((4-(4,4,5,5-tetramethyl-1,3,2-dioxaborolan-2-yl)benzyl)oxy)-1,2,3,4-tetrahydro-5H-chromeno[3,4-c]pyridin-5-one]
increase in fluorescence intensity with hydrogen peroxide (200 μM hydrogen peroxide, 1 h, room temperature): approximately 8 fold

COc1cc2c3c(c(=O)oc2c(C2OCCCO2)c1B1OC(C)(C)C(C)(C)O1)CN(C)CC3 [BC-D-F07b, 7-(1,3-dioxan-2-yl)-9-methoxy-3-methyl-8-(4,4,5,5-tetramethyl-1,3,2-dioxaborolan-2-yl)-3,4-dihydro-1H-chromeno[3,4-c]pyridin-5(2H)-one]
hydrogen peroxide dose-dependent fluorescence enhancement (oxidation to D-F07) (0 to 2 mM hydrogen peroxide, 37° C., 1 h): higher concentrations of hydrogen peroxide and higher incubation temperature (37° C.) were required

COc1cc2c3c(c(=O)oc2c(C2OCCCO2)c1OC(C)c1ccc(C(=O)OCC[Si](C)(C)C)cc1[N+](=O)[O-])CN(C)CC3 [PC-D-F07, 2-(trimethylsilyl)ethyl 4-(1-((7-(1,3-dioxan-2-yl)-9-methoxy-3-methyl-5-oxo-1,3,4,5-tetrahydro-2H-chromeno[3,4-c]pyridin-8-yl)oxy)ethyl)-3-nitrobenzoate]
increase in fluorescence intensity upon UV irradiation (conversion to D-F07) (10 μM in DMSO/PBS 1:99, UV 0.55 W/cm^2): approximately 75 fold

COc1cc2c3c(c(=O)oc2c(C2OCCCO2)c1OS(=O)(=O)c1ccc([N+](=O)[O-])cc1[N+](=O)[O-])CN(C)CC3 [TC-D-F07, 7-(1,3-dioxan-2-yl)-9-methoxy-3-methyl-5-oxo-1,3,4,5-tetrahydro-2H-chromeno[3,4-c]pyridin-8-yl 2,4-dinitrobenzenesulfonate]
fluorescence response to GSH (2.5 μM, 0 to 1 mM GSH, room temperature, 10 min): Dose-dependent increase of fluorescence
fluorescence response to methionine or glycine (2.5 μM, room temperature, 10 min): No change in fluorescence
